In article doi:10.1101/2023.12.18.572149:
These are yes or no findings as the source states them, for the method shown. Binding seen in cells or lysates may run through a third protein. Some binding calls cover weakened binding; strength is not graded here.

Biological target: T1, Multiple C2 domains and transmembrane domain protein 4 (MCTP4), transiently expressed for co-immunoprecipitation (Arabidopsis thaliana) (UniProt Q9C8H3)
T1 sequence: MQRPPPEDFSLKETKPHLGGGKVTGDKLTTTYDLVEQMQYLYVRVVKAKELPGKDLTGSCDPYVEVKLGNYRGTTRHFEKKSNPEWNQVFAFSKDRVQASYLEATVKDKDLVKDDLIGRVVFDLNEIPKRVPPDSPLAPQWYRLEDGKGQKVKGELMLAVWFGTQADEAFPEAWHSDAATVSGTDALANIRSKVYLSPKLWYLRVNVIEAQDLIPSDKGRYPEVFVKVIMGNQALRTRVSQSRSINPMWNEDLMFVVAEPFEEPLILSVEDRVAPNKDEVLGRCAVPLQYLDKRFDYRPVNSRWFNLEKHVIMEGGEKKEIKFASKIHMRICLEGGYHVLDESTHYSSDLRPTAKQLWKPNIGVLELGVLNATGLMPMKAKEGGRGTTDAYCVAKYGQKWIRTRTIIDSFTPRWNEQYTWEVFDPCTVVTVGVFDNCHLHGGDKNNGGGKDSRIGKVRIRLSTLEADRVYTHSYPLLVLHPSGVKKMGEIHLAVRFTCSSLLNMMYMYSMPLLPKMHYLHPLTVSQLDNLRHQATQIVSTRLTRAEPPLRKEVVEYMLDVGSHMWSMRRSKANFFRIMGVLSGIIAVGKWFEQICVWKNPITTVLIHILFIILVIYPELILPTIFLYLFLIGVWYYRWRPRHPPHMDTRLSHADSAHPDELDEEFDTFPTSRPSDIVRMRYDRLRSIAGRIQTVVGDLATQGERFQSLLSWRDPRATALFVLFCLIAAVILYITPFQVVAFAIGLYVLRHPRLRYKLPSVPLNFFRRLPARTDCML
Experiment: co-IP

B1: Multiple C2 domains and transmembrane domain protein 6 (MCTP6), transiently expressed for co-immunoprecipitation (protein, UniProt Q9SKA3 1-1029)
chain: MNKLVVEIVDASDLMPKDGQGSASPFVEVEFDEQRQRTQTRFKDLNPQWNEKLVFNVGDLKRLNNKTVDVTVYDDRRDNQPGKFLGRVKIAGAVVPLSESESGVQRYPLDKRGLFSNIKGDIALRIYAAPIDGGDFVSPPPDFAEKVMKEDKRFESQEFQFQNQNQNQNHYEQFEDEINNMETLKPTKKKEKESRTFHSIGAHAGGGGGAPPMSQAKQAYPPPPNQPEFRSDFMRAPGPPTGAVMQMQPPRQQNPEFQLIETSPPLAARMRQSYYYRSSGDKTSSTYDLVEQMHYLYVSVVKARDLPVMDVSGSLDPYVEVKLGNYKGLTKHLEKNSNPIWKQIFAFSKERLQSNLLEVTVKDKDLLTKDDFVGRVHIDLTEVPLRVPPDSPLAPQWYRLEDKKGMKTNRGEIMLAVWMGTQADESFPDAWHSDAHRVSHSNLSNTRSKVYFSPKLYYLRIHVMEAQDLVPSDKGRVPDAIVKIQAGNQMRATRTPQMRTMNPQWHEELMFVVSEPFEDMVIVSVDDRIGPGKDEILGRVFIPVRDVPVRQEVGKMPDPRWFNLQRHSMSMEEENEKRKEKFSSKILLRVCIEAGYHVLDESTHFSSDLQPSSKHLRKPSIGILELGILSARNLMPMKGKDGRMTDPYCVAKYGNKWVRTRTLLDALAPKWNEQYTWEVHDPCTVITIGVFDNSHVNDGGDFKDQRIGKVRVRLSTLETDRVYTHFYPLLVLTPGGLKKNGELQLALRYTCTGFVNMMAQYGRPLLPKMHYIQPIPVRHIDLLRHQAMQIVATRLSRSEPPLRREVVEYMLDVDYHMFSLRRSKANFSRIMSLLSSVTLVCKWFNDICTWRNPITTCLVHVLFLILVCYPELILPTVFLYLFVIGMWNYRYRPRHPPHMDARVSQADNAHPDELDEEFDTFPTSRPADIVRMRYDRLRSVGGRVQTVVGDLATQGERIQALLSWRDPRATALFIVFALIWAVFIYVTPFQVIAIIIGLFMLRHPRFRSRMPSVPANFFKRLPAKSDMLL
With B1 the binding was “binds”.
